# In US20250352579A1 (HEBEI SENLANG BIOTECHNOLOGY, published 2025):
# These are yes or no findings as the source states them, for the method shown. Some entries that bind do so weakly or less than the wild type.
# T1: CD7-His protein (UniProt P09564 26-180, limits assumed)
# T1 construct: extracellular domain; also called recombinant CD7-His protein; CD7 antigen; not shown: His tag
# T1 sequence (looked up): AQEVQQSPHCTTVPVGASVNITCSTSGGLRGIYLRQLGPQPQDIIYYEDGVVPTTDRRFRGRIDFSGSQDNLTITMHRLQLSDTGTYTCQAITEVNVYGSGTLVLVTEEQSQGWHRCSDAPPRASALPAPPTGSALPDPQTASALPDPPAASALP
# B1: dVHH-D (other)
# chain (part 1 of 2): QVQLQESGGGLVQTGGSLRLSCEASERTFSSNAVGWFRQAPGKEREFVAAITWSVGTTYYADSVKGRFTISRDNAKNTVYLQMNSLKPEDTAVYYCAASGARHYSGSYLDFGSWGQGTQVTVSS
# chain (part 2 of 2): QVQLQESGGGLVQPGGSLRLSCAASGSTLDYYAIGWFRQAPGKEREGISCISNSGGMTNYADSVKGRFTISRDNAKNTVYLQMNSLKPEDTAVYYCAAGPAWSYCSGYVPAGLDKFGSWGQGTQVTVSS
# notes: also called VHH-10+VHH-12; double VHH antibody dVHH-D; not shown: Linker
# B2: dVHH-E (other)
# chain (part 1 of 2): QVQLQESGGGLVQTGGSLRLSCEASERTFSSNAVGWFRQAPGKEREFVAAITWSVGTTYYADSVKGRFTISRDNAKNTVYLQMNSLKPEDTAVYYCAASGARHYSGSYLDFGSWGQGTQVTVSS
# chain (part 2 of 2): QVQLQESGGGLVQTGGSLRLSCEASERTFSSNAVGWFRQAPGKEREFVAAITWSVGTTYYADSVKGRFTISRDNAKNTVYLQMNSLKPEDTAVYYCAASGARHYSGSYLDFGSWGQGTQVTVSS
# notes: also called VHH-10+VHH-10; double VHH antibody dVHH-E; not shown: Linker
# B3: VHH10 (VHH)
# VHH: QVQLQESGGGLVQTGGSLRLSCEASERTFSSNAVGWFRQAPGKEREFVAAITWSVGTTYYADSVKGRFTISRDNAKNTVYLQMNSLKPEDTAVYYCAASGARHYSGSYLDFGSWGQGTQVTVSS
# notes: Variable region only; also called anti-CD7 nanobody VHH10
# B4: VHH12 (VHH)
# VHH: QVQLQESGGGLVQPGGSLRLSCAASGSTLDYYAIGWFRQAPGKEREGISCISNSGGMTNYADSVKGRFTISRDNAKNTVYLQMNSLKPEDTAVYYCAAGPAWSYCSGYVPAGLDKFGSWGQGTQVTVSS
# notes: Variable region only; also called anti-CD7 nanobody VHH12
# Assays:
# CD7-His protein [1] = molecular target: CD7-His protein (UniProt P09564); experiment: SPR, CD7-His immobilised on CM5 chip
# CD7-His protein [2] = molecular target: T1, CD7-His protein; experiment: SPR, CD7-His immobilised on CM5 chip
binding (CD7-His protein [1]),binding (CD7-His protein [2]),Binder
binds,–,B1
–,binds,B2
–,binds,B3
binds,–,B4
